For 33 targets, melting temperature shift results are on record in the supplement of paper PMC12595434, “Development of retinoid nuclear receptor pathway antagonists through targeting aldehyde dehydrogenase 1A3” (iScience, 2025).

Chains of the proteins cited; added tags and fusions are not shown. Lines headed by an entry give the natural chain unless they say otherwise; changes in a name come on top.
UniProt Q9BRQ8: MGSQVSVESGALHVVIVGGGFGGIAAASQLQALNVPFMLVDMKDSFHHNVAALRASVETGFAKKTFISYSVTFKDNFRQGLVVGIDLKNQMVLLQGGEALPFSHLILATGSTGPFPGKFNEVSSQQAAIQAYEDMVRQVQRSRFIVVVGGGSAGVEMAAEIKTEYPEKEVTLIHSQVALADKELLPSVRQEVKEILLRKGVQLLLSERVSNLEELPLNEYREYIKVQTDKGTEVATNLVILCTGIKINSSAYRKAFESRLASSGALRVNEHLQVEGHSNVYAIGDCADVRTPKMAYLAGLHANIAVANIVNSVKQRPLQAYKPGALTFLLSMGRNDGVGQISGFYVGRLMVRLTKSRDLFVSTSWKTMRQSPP
UniProt Q9BXB5: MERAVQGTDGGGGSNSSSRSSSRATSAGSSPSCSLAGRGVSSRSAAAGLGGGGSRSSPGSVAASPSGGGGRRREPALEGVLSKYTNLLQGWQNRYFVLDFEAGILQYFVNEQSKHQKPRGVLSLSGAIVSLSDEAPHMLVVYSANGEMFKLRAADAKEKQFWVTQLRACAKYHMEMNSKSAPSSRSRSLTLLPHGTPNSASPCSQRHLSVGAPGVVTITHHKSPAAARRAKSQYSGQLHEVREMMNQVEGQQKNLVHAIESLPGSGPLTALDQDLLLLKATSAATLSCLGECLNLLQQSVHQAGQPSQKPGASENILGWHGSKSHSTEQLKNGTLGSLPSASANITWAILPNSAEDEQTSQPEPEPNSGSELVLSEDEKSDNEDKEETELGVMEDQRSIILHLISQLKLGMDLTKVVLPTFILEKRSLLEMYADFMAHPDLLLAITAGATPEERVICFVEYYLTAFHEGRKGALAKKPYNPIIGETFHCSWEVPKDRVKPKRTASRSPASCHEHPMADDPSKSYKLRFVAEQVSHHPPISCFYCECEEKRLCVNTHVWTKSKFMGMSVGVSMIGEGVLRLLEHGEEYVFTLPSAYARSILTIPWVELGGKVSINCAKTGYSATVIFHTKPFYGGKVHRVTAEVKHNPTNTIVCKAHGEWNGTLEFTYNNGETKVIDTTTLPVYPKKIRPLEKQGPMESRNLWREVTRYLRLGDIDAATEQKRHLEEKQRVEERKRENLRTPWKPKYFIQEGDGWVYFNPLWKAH
UniProt Q9BTD8: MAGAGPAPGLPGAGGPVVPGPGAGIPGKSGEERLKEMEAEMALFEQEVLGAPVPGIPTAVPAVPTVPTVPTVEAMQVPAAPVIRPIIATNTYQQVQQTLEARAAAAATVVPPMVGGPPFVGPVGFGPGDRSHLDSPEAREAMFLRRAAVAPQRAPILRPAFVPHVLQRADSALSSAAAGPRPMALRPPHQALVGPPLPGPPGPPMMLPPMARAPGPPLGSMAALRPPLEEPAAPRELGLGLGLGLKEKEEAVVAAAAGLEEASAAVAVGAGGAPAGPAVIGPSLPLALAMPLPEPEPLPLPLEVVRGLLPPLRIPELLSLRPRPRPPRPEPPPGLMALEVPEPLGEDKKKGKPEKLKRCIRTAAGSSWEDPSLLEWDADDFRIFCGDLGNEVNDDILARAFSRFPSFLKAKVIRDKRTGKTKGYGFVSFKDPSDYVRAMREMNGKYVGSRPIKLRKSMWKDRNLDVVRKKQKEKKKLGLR
UniProt Q9BY66, whole entry: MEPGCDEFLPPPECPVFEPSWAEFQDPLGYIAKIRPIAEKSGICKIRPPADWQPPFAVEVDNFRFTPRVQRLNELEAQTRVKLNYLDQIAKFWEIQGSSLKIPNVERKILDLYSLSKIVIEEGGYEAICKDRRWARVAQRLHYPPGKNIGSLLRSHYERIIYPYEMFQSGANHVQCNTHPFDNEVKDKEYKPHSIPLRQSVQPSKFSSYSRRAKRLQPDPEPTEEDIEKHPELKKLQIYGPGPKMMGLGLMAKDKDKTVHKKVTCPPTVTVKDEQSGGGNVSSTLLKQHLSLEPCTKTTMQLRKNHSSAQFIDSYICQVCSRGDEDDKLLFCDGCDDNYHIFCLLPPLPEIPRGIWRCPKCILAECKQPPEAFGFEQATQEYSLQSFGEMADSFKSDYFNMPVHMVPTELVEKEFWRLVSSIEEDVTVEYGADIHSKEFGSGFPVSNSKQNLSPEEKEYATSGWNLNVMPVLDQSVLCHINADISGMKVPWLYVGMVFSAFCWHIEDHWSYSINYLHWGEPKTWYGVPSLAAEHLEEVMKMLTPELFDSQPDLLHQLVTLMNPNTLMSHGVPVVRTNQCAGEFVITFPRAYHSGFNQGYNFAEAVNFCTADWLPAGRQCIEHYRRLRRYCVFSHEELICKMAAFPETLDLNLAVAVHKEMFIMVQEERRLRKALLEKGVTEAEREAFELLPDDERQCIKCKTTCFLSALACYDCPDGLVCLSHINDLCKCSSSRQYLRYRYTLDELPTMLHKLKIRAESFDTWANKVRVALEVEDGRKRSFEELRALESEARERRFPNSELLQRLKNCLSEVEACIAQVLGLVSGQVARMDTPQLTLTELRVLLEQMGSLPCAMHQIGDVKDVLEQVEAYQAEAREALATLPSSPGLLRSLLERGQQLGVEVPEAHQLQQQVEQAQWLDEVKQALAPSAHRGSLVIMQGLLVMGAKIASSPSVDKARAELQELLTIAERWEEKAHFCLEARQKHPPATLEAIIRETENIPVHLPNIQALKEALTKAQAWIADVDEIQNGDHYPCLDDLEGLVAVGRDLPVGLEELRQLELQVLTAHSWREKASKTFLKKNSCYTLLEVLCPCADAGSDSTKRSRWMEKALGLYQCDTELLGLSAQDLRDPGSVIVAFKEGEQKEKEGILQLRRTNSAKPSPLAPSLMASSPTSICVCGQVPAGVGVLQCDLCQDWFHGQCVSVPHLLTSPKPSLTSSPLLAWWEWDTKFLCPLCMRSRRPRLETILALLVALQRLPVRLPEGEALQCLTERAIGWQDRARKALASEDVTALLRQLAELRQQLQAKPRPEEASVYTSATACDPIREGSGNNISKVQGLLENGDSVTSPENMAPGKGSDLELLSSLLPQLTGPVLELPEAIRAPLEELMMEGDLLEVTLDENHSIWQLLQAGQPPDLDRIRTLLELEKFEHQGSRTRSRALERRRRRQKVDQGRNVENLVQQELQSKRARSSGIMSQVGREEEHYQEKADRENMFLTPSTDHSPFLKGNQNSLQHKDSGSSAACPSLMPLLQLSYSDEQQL
UniProt Q99622: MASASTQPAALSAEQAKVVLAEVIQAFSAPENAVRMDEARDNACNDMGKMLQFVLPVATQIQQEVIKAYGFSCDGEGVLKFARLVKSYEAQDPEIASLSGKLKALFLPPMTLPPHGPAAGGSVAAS
UniProt Q9BW30: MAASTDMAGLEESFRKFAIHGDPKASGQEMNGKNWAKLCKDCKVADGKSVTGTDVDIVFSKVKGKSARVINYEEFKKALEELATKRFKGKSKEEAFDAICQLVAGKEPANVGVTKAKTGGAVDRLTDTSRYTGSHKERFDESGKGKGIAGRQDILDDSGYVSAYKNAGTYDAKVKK
UniProt Q99714: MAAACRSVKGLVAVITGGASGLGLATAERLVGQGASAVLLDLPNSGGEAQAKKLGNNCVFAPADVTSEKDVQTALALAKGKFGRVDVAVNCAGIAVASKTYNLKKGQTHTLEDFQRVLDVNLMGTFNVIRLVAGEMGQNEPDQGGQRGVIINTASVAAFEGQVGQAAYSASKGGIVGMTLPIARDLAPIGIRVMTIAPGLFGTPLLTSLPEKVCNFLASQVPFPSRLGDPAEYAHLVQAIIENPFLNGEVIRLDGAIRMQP
UniProt Q9BVC4, whole entry: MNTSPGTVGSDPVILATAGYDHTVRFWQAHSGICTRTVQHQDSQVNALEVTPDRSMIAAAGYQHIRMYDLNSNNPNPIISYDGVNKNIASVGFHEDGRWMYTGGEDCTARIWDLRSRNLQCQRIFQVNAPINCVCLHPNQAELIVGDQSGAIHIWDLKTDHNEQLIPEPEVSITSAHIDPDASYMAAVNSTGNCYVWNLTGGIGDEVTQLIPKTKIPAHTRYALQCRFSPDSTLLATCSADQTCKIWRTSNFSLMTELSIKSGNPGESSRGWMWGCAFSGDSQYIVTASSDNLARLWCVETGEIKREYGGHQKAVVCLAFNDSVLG
UniProt Q99575: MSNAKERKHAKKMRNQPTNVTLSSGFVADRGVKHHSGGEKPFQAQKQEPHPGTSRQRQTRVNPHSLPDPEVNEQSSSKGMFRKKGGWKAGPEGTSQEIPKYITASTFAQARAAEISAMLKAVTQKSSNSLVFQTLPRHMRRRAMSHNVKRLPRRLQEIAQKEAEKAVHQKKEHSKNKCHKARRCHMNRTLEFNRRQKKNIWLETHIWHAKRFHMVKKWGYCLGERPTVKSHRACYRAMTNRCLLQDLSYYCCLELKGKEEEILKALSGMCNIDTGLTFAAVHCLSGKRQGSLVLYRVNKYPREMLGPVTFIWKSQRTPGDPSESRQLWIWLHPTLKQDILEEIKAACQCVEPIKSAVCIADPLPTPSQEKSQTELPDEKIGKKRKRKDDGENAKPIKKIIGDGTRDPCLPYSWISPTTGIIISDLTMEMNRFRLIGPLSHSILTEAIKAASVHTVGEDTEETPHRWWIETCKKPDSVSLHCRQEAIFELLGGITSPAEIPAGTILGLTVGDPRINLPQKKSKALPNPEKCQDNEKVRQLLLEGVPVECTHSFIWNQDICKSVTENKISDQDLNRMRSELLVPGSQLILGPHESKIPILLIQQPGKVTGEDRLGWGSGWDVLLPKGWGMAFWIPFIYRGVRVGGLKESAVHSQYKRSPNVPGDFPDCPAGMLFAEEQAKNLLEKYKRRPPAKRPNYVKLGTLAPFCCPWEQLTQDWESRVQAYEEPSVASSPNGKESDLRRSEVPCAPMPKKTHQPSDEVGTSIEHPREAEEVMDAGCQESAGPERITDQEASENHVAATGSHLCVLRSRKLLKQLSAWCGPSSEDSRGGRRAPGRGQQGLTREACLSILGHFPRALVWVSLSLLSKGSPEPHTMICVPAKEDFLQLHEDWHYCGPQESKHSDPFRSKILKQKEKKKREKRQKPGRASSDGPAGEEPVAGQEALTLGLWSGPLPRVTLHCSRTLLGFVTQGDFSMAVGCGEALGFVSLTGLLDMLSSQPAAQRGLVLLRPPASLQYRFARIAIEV
UniProt Q99755: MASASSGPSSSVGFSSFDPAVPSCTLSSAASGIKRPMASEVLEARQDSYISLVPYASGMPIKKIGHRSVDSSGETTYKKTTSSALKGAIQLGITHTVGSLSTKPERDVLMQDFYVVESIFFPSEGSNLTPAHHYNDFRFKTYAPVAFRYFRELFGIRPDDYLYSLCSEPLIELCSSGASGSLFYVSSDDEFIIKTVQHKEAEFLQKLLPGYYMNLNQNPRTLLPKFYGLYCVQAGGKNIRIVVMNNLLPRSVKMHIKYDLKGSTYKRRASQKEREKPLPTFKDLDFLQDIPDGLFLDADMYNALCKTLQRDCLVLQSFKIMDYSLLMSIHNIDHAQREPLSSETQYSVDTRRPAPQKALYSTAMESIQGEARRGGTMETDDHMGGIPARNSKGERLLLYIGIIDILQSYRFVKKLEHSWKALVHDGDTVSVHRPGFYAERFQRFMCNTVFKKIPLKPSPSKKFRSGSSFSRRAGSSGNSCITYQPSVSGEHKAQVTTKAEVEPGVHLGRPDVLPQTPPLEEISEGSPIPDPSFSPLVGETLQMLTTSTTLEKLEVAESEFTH
UniProt Q9BTA9: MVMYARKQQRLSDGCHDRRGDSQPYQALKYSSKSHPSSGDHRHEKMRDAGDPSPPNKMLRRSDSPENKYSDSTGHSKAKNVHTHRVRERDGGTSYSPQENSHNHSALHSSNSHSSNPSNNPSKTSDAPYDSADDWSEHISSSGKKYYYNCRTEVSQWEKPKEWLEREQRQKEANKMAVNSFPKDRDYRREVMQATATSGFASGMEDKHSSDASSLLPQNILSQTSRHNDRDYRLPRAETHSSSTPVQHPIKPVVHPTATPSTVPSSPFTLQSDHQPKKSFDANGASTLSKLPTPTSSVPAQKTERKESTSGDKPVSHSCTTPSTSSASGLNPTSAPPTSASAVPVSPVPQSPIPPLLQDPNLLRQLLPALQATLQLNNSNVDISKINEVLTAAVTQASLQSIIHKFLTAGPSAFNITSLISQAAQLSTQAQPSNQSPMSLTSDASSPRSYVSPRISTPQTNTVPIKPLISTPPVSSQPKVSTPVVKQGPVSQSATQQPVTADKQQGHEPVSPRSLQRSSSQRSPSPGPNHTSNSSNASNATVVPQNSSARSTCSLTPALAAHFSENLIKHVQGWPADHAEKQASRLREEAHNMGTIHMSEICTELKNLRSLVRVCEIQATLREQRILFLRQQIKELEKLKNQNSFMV
UniProt Q9BW60: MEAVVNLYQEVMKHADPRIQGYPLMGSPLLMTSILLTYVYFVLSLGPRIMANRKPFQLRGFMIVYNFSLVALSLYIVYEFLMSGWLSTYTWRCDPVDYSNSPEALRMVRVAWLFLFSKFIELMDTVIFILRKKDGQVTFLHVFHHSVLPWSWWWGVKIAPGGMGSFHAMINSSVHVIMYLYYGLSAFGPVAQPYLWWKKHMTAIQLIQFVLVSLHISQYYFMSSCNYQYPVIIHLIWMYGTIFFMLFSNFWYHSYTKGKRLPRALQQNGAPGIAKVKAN

This is one part of the list. This is a noisy data set.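 Tm was set to 64 °C where no melting was found, and many curves are irregular.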

Compound in the assay: CCc1cnccc1C(=O)Nc1cc2c(cc1F)NC(=O)CC2
Kind of assay: melting temperature shift (DMSO Tm minus MBE1-treated Tm) in cellular thermal proteome profiling; higher = less thermal stabilization by MBE1 (negative = stabilized by MBE1). Conditions: A375; MBE1 concentration: 100 nM.
As to AIFM2 (UniProt Q9BRQ8), the melting temperature shift was -0.805 °C.

As to NTPCR (UniProt Q9BSD7), the melting temperature shift is -0.738 °C.

Take DHRS4 (UniProt Q9BTZ2): the melting temperature shift was -0.659 °C.

OSBPL10 (UniProt Q9BXB5): the melting temperature shift was -0.936 °C.

TARS2 (UniProt Q9BW92): the melting temperature shift is -0.725 °C.

In the case of PDCD2L (UniProt Q9BRP1), the melting temperature shift was found to be 0.476 °C.

For PSMG3 (UniProt Q9BT73), the melting temperature shift was -4.44 °C.

In the case of RBM42 (UniProt Q9BTD8), the melting temperature shift is -0.891 °C.

Turning to UniProt Q9BY66, the melting temperature shift was -0.806 °C.

As for CHID1 (UniProt Q9BWS9), the melting temperature shift is -1.23 °C.

Regarding UniProt Q9BRK4, the melting temperature shift was -0.488 °C.

As for COPS4 (UniProt Q9BT78), the melting temperature shift was -0.349 °C.

UniProt Q9BU64: the melting temperature shift was -1.03 °C.

Turning to UniProt Q99622, the melting temperature shift is -0.861 °C.

Turning to UniProt Q9BW30, the melting temperature shift is -5.72 °C.

On to ATG101 (UniProt Q9BSB4), for which the melting temperature shift was -2.29 °C.

With HSD17B10 (UniProt Q99714), the melting temperature shift was -0.604 °C.

Turning to MLST8 (UniProt Q9BVC4), the melting temperature shift was found to be 0.0805 °C.

For the target NUDT9 (UniProt Q9BW91), the melting temperature shift is -0.244 °C.

For the target NDUFAF3 (UniProt Q9BU61), the melting temperature shift is -1.07 °C.

Take HGH1 (UniProt Q9BTY7): the melting temperature shift is -0.403 °C.

With POP1 (UniProt Q99575), the melting temperature shift is -1.31 °C.

As to UniProt Q9BTV5, the melting temperature shift is 0.415 °C.

For the target PIP5K1A (UniProt Q99755), the melting temperature shift was found to be 0.147 °C.

For LLPH (UniProt Q9BRT6), the melting temperature shift was -1.86 °C.

With PHF23 (UniProt Q9BUL5), the melting temperature shift was -1.24 °C.

As for WAC (UniProt Q9BTA9), the melting temperature shift is -0.224 °C.

For the target UniProt Q99735, the melting temperature shift was -2.72 °C.

ELOVL1 (UniProt Q9BW60): the melting temperature shift was found to be 0.818 °C.

Consider UniProt Q99549, for which the melting temperature shift is -2.58 °C.

Take UniProt Q9BVR0: the melting temperature shift was -0.179 °C.

Take MGLL (UniProt Q99685): the melting temperature shift is -0.0469 °C.

As to ERP44 (UniProt Q9BS26), the melting temperature shift was -1.33 °C.
